PubChem BioAssay AID1259405 | NCATS, 2018
In all, the deposit lists about 50,000 reagents; below is a random part of them. Over the whole deposit, about 4,000 (8%) got an active call. 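Mouse siRNA library applied to hamster cells; one well for each siRNA.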 A number with no mark means an inactive call. The numbers tell different reagents against one gene apart.

- Screen: 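Knock-downs that lift recombinant protein yield in hamster ovary cells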 (primary screen)
- Cells: Chinese hamster CHO-K1 ovary cells with stable secreted eGFP expression
- Reagent: single siRNA against mouse genes, 0.8 pmol siRNA per well (2 µl of 400 nM stock)
- Timing: 3 days
- Detection: 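Percent of the per-plate non-targeting control median for intracellular GFP per well by laser scanning cytometry and for cell viability by ATP luminescence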
- Reading the numbers: GFP, % of control: higher = more GFP per well, higher productivity; viability (ATP), % of control: higher = more viable cells (more ATP)
- Rule for the call: 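a knock-down is called active if GFP reaches 120% or more of non-targeting control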

For Art2b (ADP-ribosyltransferase 2b) #1, what was measured?
GFP, % of control: 74.5; viability (ATP), % of control: 76.2

For Art2b (ADP-ribosyltransferase 2b) #2, what was measured?
GFP, % of control: 73.7; viability (ATP), % of control: 85.5

For Art2b (ADP-ribosyltransferase 2b) #3, how do the results read?
GFP, % of control: 54.3; viability (ATP), % of control: 57.4

For Smyd3 (SET and MYND domain containing 3) #1, what was measured?
GFP, % of control: 90.6; viability (ATP), % of control: 101

For Smyd3 (SET and MYND domain containing 3) #2, what was measured?
GFP, % of control: 80.2; viability (ATP), % of control: 101

What did the screen give for Gadd45a (growth arrest and DNA-damage-inducible 45 alpha) #1?
GFP, % of control: 69.9; viability (ATP), % of control: 86.4

With Gadd45a (growth arrest and DNA-damage-inducible 45 alpha) #2, what does the deposit list?
GFP, % of control: 97.7; viability (ATP), % of control: 60.2

With Gadd45a (growth arrest and DNA-damage-inducible 45 alpha) #3, what was measured?
GFP, % of control: 87.2; viability (ATP), % of control: 85.3

For Plod2 (procollagen lysine, 2-oxoglutarate 5-dioxygenase 2) #1, what does the deposit list?
GFP, % of control: 20.2; viability (ATP), % of control: 17.9

Which result is listed for Plod2 (procollagen lysine, 2-oxoglutarate 5-dioxygenase 2) #2?
GFP, % of control: 75.3; viability (ATP), % of control: 62.9

For Plod2 (procollagen lysine, 2-oxoglutarate 5-dioxygenase 2) #3, what does the deposit list?
GFP, % of control: 87.2; viability (ATP), % of control: 101

What is on record for Fbxo28 (F-box protein 28) #1?
GFP, % of control: 60.5; viability (ATP), % of control: 74.8

With Fbxo28 (F-box protein 28) #2, how do the results read?
GFP, % of control: 40.4; viability (ATP), % of control: 83.5

With Fbxo28 (F-box protein 28) #3, how do the results read?
GFP, % of control: 51.6; viability (ATP), % of control: 31.4

With Rhoq (ras homolog family member Q) #1, how do the results read?
GFP, % of control: 119; viability (ATP), % of control: 105

How did the screen score Rhoq (ras homolog family member Q) #2?
GFP, % of control: 92; viability (ATP), % of control: 94.9

With Rhoq (ras homolog family member Q) #3, what was measured?
GFP, % of control: 73; viability (ATP), % of control: 91.2

What did the screen give for Golm2 (golgi membrane protein 2) #1?
GFP, % of control: 59.8; viability (ATP), % of control: 54.9

What is on record for Golm2 (golgi membrane protein 2) #2?
GFP, % of control: 111; viability (ATP), % of control: 78.3

Which result is listed for Golm2 (golgi membrane protein 2) #3?
GFP, % of control: 81.5; viability (ATP), % of control: 59.8

With Sycn (syncollin) #1, how do the results read?
GFP, % of control: 55; viability (ATP), % of control: 79.1

How did the screen score Sycn (syncollin) #2?
GFP, % of control: 101; viability (ATP), % of control: 122

What is on record for Sycn (syncollin) #3?
GFP, % of control: 121 (active); viability (ATP), % of control: 107

What did the screen give for Alg11 (ALG11 alpha-1,2-mannosyltransferase) #1?
GFP, % of control: 34.6; viability (ATP), % of control: 49.9

For Alg11 (ALG11 alpha-1,2-mannosyltransferase) #2, what does the deposit list?
GFP, % of control: 123 (active); viability (ATP), % of control: 74.6

Which result is listed for Alg11 (ALG11 alpha-1,2-mannosyltransferase) #3?
GFP, % of control: 119; viability (ATP), % of control: 86.4

Which result is listed for Nrl (neural retina leucine zipper gene) #1?
GFP, % of control: 58.5; viability (ATP), % of control: 56.9

What is on record for Nrl (neural retina leucine zipper gene) #2?
GFP, % of control: 65.8; viability (ATP), % of control: 79

How did the screen score Nrl (neural retina leucine zipper gene) #3?
GFP, % of control: 57.6; viability (ATP), % of control: 55.5

With Arhgap23 (Rho GTPase activating protein 23) #1, how do the results read?
GFP, % of control: 35.4; viability (ATP), % of control: 27.8

With Arhgap23 (Rho GTPase activating protein 23) #2, how do the results read?
GFP, % of control: 72.6; viability (ATP), % of control: 82.1

With Arhgap23 (Rho GTPase activating protein 23) #3, what was measured?
GFP, % of control: 90.8; viability (ATP), % of control: 76

What is on record for Ace2 (angiotensin converting enzyme 2) #1?
GFP, % of control: 87.9; viability (ATP), % of control: 71.3

For Ace2 (angiotensin converting enzyme 2) #2, what does the deposit list?
GFP, % of control: 47.2; viability (ATP), % of control: 57.6

How did the screen score Ace2 (angiotensin converting enzyme 2) #3?
GFP, % of control: 80.7; viability (ATP), % of control: 79.1

What is on record for Cse1l (chromosome segregation 1 like) #1?
GFP, % of control: 99.2; viability (ATP), % of control: 63.7

What did the screen give for Cse1l (chromosome segregation 1 like) #2?
GFP, % of control: 82; viability (ATP), % of control: 81.6

With Cse1l (chromosome segregation 1 like) #3, what was measured?
GFP, % of control: 62.4; viability (ATP), % of control: 39.7

Which result is listed for Lhb (luteinizing hormone beta) #1?
GFP, % of control: 96.6; viability (ATP), % of control: 65.3

With Lhb (luteinizing hormone beta) #2, how do the results read?
GFP, % of control: 152 (active); viability (ATP), % of control: 72.4

What did the screen give for Lhb (luteinizing hormone beta) #3?
GFP, % of control: 73.5; viability (ATP), % of control: 32.2

5 successive reagents already listed, for reference:
Alg11 (ALG11 alpha-1,2-mannosyltransferase) #3 → GFP, % of control = 119; viability (ATP), % of control = 86.4
Nrl (neural retina leucine zipper gene) #1 → GFP, % of control = 58.5; viability (ATP), % of control = 56.9
Nrl (neural retina leucine zipper gene) #2 → GFP, % of control = 65.8; viability (ATP), % of control = 79
Nrl (neural retina leucine zipper gene) #3 → GFP, % of control = 57.6; viability (ATP), % of control = 55.5
Arhgap23 (Rho GTPase activating protein 23) #1 → GFP, % of control = 35.4; viability (ATP), % of control = 27.8
